Results reported in PubChem BioAssay AID504467 (National Center for Advancing Translational Sciences (NCATS), 2011).
Screen size: about 330,000 compounds; about 7,700 (2.3%) were called active. Inconclusive means that the source gave no clear call. Such entries were picked first, then a sample of the others. Calls follow the shape of the dose curve; as a rule, active = well fitted inhibition curve with a large enough effect; inconclusive = small, poorly fitted or top-dose-only effect, or effect the other way; inactive = flat fitted curve, though single readings scatter. Where the call is inconclusive, the potency comes from a doubtful curve fit.
Potency is read from the fitted curve at half-maximal effect.

Assay: qHTS screen for small molecules that inhibit ELG1-dependent DNA repair in human embryonic kidney (HEK293T) cells expressing luciferase-tagged ELG1; also: nearly all actives have a fitted effect of over 55% in size
Conditions: HEK293T ELG1-luciferase reporter, luminescence, 16 h, DNA damage induced by 5-fluorouridine; series mostly up to 46.1 µM
Outline: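 Reporter activity after DNA damage by 5-fluorouridine is monitored. Compound-treated cells incubate 16 hr at 37 °C, then ONE-Glo is added for 30 min before luminescence reading.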
For COc1cc(/C=N/NC(=O)c2cc(-c3ccccc3)nc3ccccc23)ccc1O, the Potency was inconclusive: 16.4 µM [inhibitor, single point].
For COc1ccc(NC(=O)CN2C(=O)NC3(CCCC3)C2=O)cc1Cl, the Potency was “inactive”.
In the case of COc1ccc(OC)c(/C=N/NC(=O)c2cc(-c3ccc(C)o3)nc3ccccc23)c1, the Potency is reported as inconclusive: 29.1 µM [inhibitor, single point].
With COCCn1c(C)cc(C(=O)CSc2cc(C)c3ccccc3n2)c1C the Potency was “inactive”.
With Cc1cccc(NS(=O)(=O)c2ccc3oc(=O)ccc3c2)c1C the Potency was “inactive”.
With CC1Cc2ccccc2N1C(=O)COC(=O)Cn1cnc2ccccc2c1=O (stereo not given) the Potency was inconclusive: 1.3 µM [inhibitor, partial curve, poor fit].
For C=CCc1cccc(CNc2c(C)cc(C)cc2C)c1O, the Potency was inconclusive: 20.6 µM [activator, partial curve].
For COc1ccccc1CN1C[C@@H]2C[C@@H](c3ccccc3OC)N3CCC[C@@]23C1=O, the Potency was “inactive”.
In the case of O=C(/C=C/c1ccccc1)OCc1cncs1, the Potency is reported as inconclusive: 29.1 µM [activator, single point].
In the case of CCC1=NNc2cccc3c(OC)ccc1c23, the Potency is reported as inconclusive: 11.6 µM [inhibitor, partial curve, poor fit].
With CC(C)(CN1CCN(Cc2ccccc2)CC1)NS(=O)(=O)c1ccc(Cl)cc1 the Potency was inconclusive: 16.4 µM [inhibitor, single point].
With Cc1n[nH]c(=O)c2c(NC(=O)CSc3nnc(-c4ccncc4)n3C)oc(C)c12 the Potency was “inactive”.
With COc1ccc(Nc2nc(NCc3ccco3)nc(N/N=C/c3ccc(O)cc3)n2)cc1 the Potency was inconclusive: 16.4 µM [inhibitor, single point].
In the case of CCOC(=O)Cc1csc(NC(=O)c2ccoc2C)n1, the Potency is reported as inconclusive: 10.3 µM [activator, partial curve, poor fit].
In the case of O=C(N=Nc1c(O)[nH]c2ccc(F)cc12)c1ccc(NS(=O)(=O)c2cccs2)cc1, the Potency is reported as “inactive”.
For CCOc1ccc(OCC(O)CN2CCN(S(=O)(=O)c3cccc(C(F)(F)F)c3)CC2)cc1 (stereo not given), the Potency was inconclusive: 18.3 µM [inhibitor, partial curve].
With COC(=O)c1cccc(NC(=O)c2ccccc2)c1 the Potency was inconclusive: 29.1 µM [activator, single point].
With N=C1/C(=C/c2ccc(OCc3ccccc3)cc2)C(=O)N=C2SC(CC(=O)N3CCOCC3)=NN12 the Potency was inconclusive: 14.6 µM [activator, partial curve].
In the case of COCCN(CC(=O)Nc1cccc(C)c1C)C(=O)C1(c2ccc(Cl)cc2)CCC1, the Potency is reported as inconclusive: 10.3 µM [inhibitor, partial curve, poor fit].
In the case of Cc1oc(-c2cccc(F)c2)nc1CN1CCCCC1CCc1ccccn1 (stereo not given), the Potency is reported as “inactive”.
With COC(=O)c1[nH]c2ccc(C)cc2c1NC(=O)CN1CCCc2ccccc21 the Potency was inconclusive: 29.1 µM [inhibitor, single point].
In the case of COc1ccc(OC)c2[nH]c(=O)c(CCNC(=O)c3ccc(Br)o3)cc12, the Potency is reported as inconclusive: 29.1 µM [inhibitor, single point].
With CCOC(=O)C1CCN(C(=O)CN(c2ccc(Oc3ccccc3)cc2)S(C)(=O)=O)CC1 the Potency was “inactive”.
In the case of O=C(COc1ccc(Cl)cc1)OCC(=O)N1CCCC1, the Potency is reported as inconclusive: 1.16 µM [inhibitor, single point].
In the case of CC(C)C[C@H](NC(=O)c1nc[nH]c1C(=O)N[C@@H](CCCCNC(=O)OC(C)(C)C)C(=O)OC(C)(C)C)C(=O)OC(C)(C)C, the Potency is reported as inconclusive: 29.1 µM [inhibitor, single point].
In the case of CN1CCN(c2nc3c(c(=O)n(C)c(=O)n3C)n2Cc2ccc(Cl)cc2)CC1, the Potency is reported as “inactive”.
With O=C(Nc1ccnn1C1CCN(Cc2cc(Cl)ccc2O)CC1)C1CC1 the Potency was “inactive”.
In the case of O=C(Cn1cc(Cl)c([N+](=O)[O-])n1)NCCC1=CCCCC1, the Potency is reported as “inactive”.
For CCOc1ccc(NC(=O)CN2C(=O)NC(CCc3ccccc3)C2=O)cc1OCC (stereo not given), the Potency was inconclusive: 29.1 µM [activator, single point].
For CC(=O)c1c(C)[nH]c(C(=O)NC(C)c2ccccc2)c1C (stereo not given), the Potency was inconclusive: 23.1 µM [inhibitor, single point].
In the case of COc1ccc(/C(C)=N/Nc2nccnc2Cl)cc1, the Potency is reported as inconclusive: 2.06 µM [activator, partial curve].
In the case of COc1ccc(C2=CC(=O)N(Nc3ccccc3)C2=O)cc1, the Potency is reported as inconclusive: 29.1 µM [activator, single point].
With Cc1cccc(-c2nnc(SCC(=O)NC3CCCC3)o2)c1 the Potency was inconclusive: 18.3 µM [activator, single point].
For S=c1c2c(nc3nc[nH]n13)CCC2, the Potency was “inactive”.
In the case of Cn1cc([N+](=O)[O-])c(C(=O)Nc2ccc3nc(-c4ccccc4)[nH]c3c2)n1, the Potency is reported as inconclusive: 13 µM [activator, partial curve].
With COc1ccc2cc(/C(C)=N/NC(=O)c3cc(-c4cccnc4)nc4ccccc34)ccc2c1 the Potency was inconclusive: 20.6 µM [activator, single point].
For COc1ccccc1C(=O)N/C(=C\c1ccc(Br)cc1)C(=O)NCC(=O)O, the Potency was “inactive”.
For CCN(CC)S(=O)(=O)c1cccc(S(=O)(=O)c2cccc(S(=O)(=O)N(CC)CC)c2)c1, the Potency was active: 8.91 µM.
In the case of CCOC(=O)C1=C(c2ccccc2)N=C2SCC(=O)N2C1c1ccc(OC)c(OC)c1 (stereo not given), the Potency is reported as inconclusive: 20.6 µM [activator, single point].
In the case of COCCn1c(SCC(=O)Nc2ccc(OC)cc2OC)nc2ccccc2c1=O, the Potency is reported as “inactive”.
For C/C=C/Cn1c(Br)nc2c1c(=O)n(C)c(=O)n2C, the Potency was “inactive”.
In the case of CSc1ccc(C2=CC(=O)C[C@H](c3ccc(Cl)cc3)C2)cc1, the Potency is reported as “inactive”.
In the case of COc1ccc(C(=O)NCCC2=CCCCC2)cc1OC, the Potency is reported as inconclusive: 20.6 µM [activator, partial curve].
In the case of CCn1c2ccccc2c2cc(CN3CCN(C(=O)c4ccco4)CC3)ccc21, the Potency is reported as inconclusive: 29.1 µM [inhibitor, single point].
For NS(=O)(=O)c1ccc(CCNS(=O)(=O)c2ccc(Cl)cc2)cc1, the Potency was “inactive”.
